Assay results from patent US20240317862A1.
Residue numbers refer to the chain shown, from its start. Results are given in words; binding and its absence hold for the method and conditions named. Some results given as binding are weak or reduced against the parent protein; the word gives no strength. For some assays here: Where a sequence is shown, tags or fusion partners need not be part of it. Values belong to the binder of their own block, whether it stands above or below them.

Key:
[1] = target: T1, human B7-H3 on tumor cells (Hs578T, MDA-MB-436, MDA-MB-468, MDA-MB-231, MDA-MB-453, HT-29) (human) (UniProt Q5ZPR3); assay: flow cytometry on Hs578T, MDA-MB-436 and MDA-MB-468 tumor cells
T1 sequence (looked up): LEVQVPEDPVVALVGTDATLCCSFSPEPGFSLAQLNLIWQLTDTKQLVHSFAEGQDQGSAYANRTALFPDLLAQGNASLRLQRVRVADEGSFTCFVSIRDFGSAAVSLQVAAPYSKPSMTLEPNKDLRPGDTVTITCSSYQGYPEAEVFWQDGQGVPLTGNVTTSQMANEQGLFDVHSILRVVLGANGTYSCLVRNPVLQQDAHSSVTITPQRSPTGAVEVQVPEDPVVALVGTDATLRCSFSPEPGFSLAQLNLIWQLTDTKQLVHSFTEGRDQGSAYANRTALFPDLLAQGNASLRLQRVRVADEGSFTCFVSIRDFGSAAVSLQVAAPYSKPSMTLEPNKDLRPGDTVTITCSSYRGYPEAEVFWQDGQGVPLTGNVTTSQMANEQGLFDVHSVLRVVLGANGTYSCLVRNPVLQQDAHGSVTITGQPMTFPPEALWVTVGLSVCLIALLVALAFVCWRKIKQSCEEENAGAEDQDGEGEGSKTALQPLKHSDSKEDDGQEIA

[2] = target: T1, human B7-H3 on tumor cells (Hs578T, MDA-MB-436, MDA-MB-468, MDA-MB-231, MDA-MB-453, HT-29) (human); assay: flow cytometry on MDA-MB-231, MDA-MB-453 and HT-29 tumor cells
[3] = target: T2, human B7-H3 (purchased from Acro Biosystems) (human) (UniProt Q5ZPR3); assay: ELISA, plate coated with human B7-H3
T2 sequence (looked up): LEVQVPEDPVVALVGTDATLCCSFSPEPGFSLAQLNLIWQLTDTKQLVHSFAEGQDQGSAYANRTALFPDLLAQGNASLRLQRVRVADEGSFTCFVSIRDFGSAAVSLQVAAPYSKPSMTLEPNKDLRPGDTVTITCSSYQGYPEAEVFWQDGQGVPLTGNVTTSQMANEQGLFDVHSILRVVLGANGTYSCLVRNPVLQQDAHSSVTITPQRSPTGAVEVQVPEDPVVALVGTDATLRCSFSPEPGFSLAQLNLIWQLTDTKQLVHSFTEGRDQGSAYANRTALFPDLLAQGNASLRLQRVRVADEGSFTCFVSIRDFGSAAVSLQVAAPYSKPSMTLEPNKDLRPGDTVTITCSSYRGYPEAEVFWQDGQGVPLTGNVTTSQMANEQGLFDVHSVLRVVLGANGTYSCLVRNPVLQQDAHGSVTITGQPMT

[4] = target: T3, His-labeled human B7-H3 (human) (UniProt Q5ZPR3); assay: BLI (ForteBio Octet), His-labeled human B7-H3 on Ni-NTA sensor
T3 sequence (looked up): T2 sequence (looked up)

binding [1]: binds | binding [2]: binds | binding [3]: binds | binding [4]: binds
B1: murine monoclonal antibody mAb152 (antibody, V domains shown)
VH: QVQLQQPGAELVRPGASVKLSCKASGYTFTAYWMNWVKQRPDQGLEWIGRIDPYDSETRYNQNFRDKARLTVDKSSSTAYMQLSSLTSEDSAVFYCARGVRIFDYWGQGTTLTVSS
VL: DIQMTQSPASLAASVGETVTITCRTSENIDYTLAWYQQKPGKSPQLLIYNANTLEDGVPSRFSGSGSGTHFSLKINSMQPEDTATYFCKQAYDVPRTFGGGTKLEIK

binding [1]: binds | binding [2]: binds | binding [3]: binds | binding [4]: binds
B2: murine monoclonal antibody mAb272 (antibody, V domains shown)
VH: B1 VH
VL: B1 VL with H70L, S77N
